PubChem BioAssay AID1259425 | University of Nebraska Medical Center – 2018
Test: 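Compare each knockdown with KSR1 silencing using changes in marker transcripts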 (primary screen). System: HCT116 human colon cancer cells. Knock-down reagent: siRNA pool against human genes, 50 nM siRNA. Measured: 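After 50 nM siRNA pool, branched-DNA assay measures six marker transcripts per well, minus blank, normalised to the geometric mean of two housekeeping transcripts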. Reading the numbers: BNIP3L mRNA: higher = more BNIP3L transcript after knockdown; NDRG1 mRNA: higher = more NDRG1 transcript after knockdown; BNIP3 mRNA: higher = more BNIP3 transcript after knockdown.
Shown is an unselected part of about 14,000 deposited reagents. Some reagents were tested in more than one well and are listed for each. Not all columns of the deposit are shown. No sequences are given here. Not stated in the record: the time to read-out.

target gene	BNIP3L mRNA, set 1	NDRG1 mRNA, set 1	BNIP3 mRNA, set 1
SELP	0.0961	0.256	0.28
RFFL	0.0979	0.23	0.224
ENPEP	0.098	0.516	0.285
RNF139	0.0682	0.13	0.297
TIMP4	0.0896	0.0898	0.28
CORO6	0.19	0.194	0.307
FAM186B	0.101	0.359	0.226
FUS	0.0926	0.225	0.338
CENPC	0.182	0.298	0.426
SHC1	0.248	0.0782	0.377
SACS	0.157	0.162	0.313
ACTR5	0.161	0.121	0.226
RABIF	0.168	0.192	0.272
IRS1	0.125	0.0852	0.288
RMC1	0.111	0.122	0.296
SLCO5A1	0.162	0.244	0.197
NFKBIL1	0.146	0.363	0.325
ANGPTL1	0.06	0.163	0.287
SPATA31A7	0.123	0.528	0.939
ZC3H13	0.0641	0.239	0.361
KIF3A	0.0696	0.189	0.244
FOXF2	0.0773	0.249	0.354
RASGRP3	0.0693	0.198	0.353
ARFGAP3	0.111	0.198	0.4
WNT10A	0.0597	0.264	0.226
MMP19	0.0595	0.0581	0.176
PAAF1	0.125	0.319	0.273
MAFK	0.0838	0.0761	0.279
LMBRD1	0.262	0.237	0.357
ACMSD	0.163	0.469	0.311
LIMCH1	0.264	0.62	0.374
GIPC2	0.0895	0.178	0.427
ITPRID2	0.14	2.6	0.726
PPP1R3A	0.101	0.19	0.249
ITGAL	0.0378	0.198	0.278
KL	0.168	0.212	0.341
QSOX1	0.0387	0.0768	0.231
MGC13053 (retired record)	0.0885	0.263	0.246
TMEM98	0.137	0.0696	0.274
MPL	0.106	0.109	0.378
SFT2D3	0.238	0.562	0.45
WARS2	0.101	0.209	0.22
CIZ1	0.192	0.0364	0.315
NT5C2	0.112	0.126	0.305
TAS2R10	0.16	0.205	0.317
SMIM8	0.0983	0.118	0.254
MEF2D	0.071	0.186	0.28
ZMIZ2	0.174	0.527	0.25
GAPVD1	0.112	0.503	0.516
PRPSAP1	0.112	0.165	0.449
RRN3	0.23	0.346	0.482
PRDM7	0.0789	0.175	0.305
ZNF644	0.126	0.201	0.426
ZNF644	0.202	0.141	0.258
PMP2	0.089	0.113	0.275
NRXN3	0.082	0.131	0.228
KRT8	0.0772	0.178	0.303
PRXL2A	0.114	0.0662	0.239
CINP	0.0508	0.116	0.311
SLC9A1	0.066	0.0791	0.338
OPRK1	0.0551	0.143	0.411
PLBD1	0.129	0.315	0.311
UBE2Q1	0.102	0.195	0.235

Records above whose target name starts with N or n (3):
target gene	BNIP3L mRNA, set 1	NDRG1 mRNA, set 1	BNIP3 mRNA, set 1
NFKBIL1	0.146	0.363	0.325
NT5C2	0.112	0.126	0.305
NRXN3	0.082	0.131	0.228
